# Assay results as given in PubChem BioAssay (EPA / NIEHS).
# Chains of the proteins cited; added tags and fusions are not shown. Lines headed by an entry give the natural chain unless they say otherwise; changes in a name come on top.
# UniProt P04386, whole entry, looked up: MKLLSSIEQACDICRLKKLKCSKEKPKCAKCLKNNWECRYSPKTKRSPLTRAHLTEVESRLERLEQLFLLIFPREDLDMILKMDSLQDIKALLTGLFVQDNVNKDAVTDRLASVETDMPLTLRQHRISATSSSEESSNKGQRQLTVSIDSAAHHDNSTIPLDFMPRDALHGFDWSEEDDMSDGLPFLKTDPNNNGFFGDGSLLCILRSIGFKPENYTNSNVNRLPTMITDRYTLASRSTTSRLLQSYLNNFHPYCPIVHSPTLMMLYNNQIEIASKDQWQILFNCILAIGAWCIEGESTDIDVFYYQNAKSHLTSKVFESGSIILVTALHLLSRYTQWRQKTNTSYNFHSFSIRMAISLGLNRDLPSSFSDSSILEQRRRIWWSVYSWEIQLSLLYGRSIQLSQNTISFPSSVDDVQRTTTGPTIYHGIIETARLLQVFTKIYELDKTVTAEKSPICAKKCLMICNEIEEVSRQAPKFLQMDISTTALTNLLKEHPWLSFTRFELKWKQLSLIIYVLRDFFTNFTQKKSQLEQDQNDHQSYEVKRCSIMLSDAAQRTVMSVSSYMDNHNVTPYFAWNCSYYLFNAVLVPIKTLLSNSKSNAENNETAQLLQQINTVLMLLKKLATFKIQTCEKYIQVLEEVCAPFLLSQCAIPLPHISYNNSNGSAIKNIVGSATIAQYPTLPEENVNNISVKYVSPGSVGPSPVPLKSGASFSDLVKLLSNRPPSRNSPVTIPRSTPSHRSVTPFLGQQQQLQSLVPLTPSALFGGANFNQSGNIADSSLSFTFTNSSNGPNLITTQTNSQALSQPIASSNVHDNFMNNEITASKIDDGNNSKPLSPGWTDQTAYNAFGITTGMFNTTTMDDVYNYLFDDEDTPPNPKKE
# UniProt Q98867: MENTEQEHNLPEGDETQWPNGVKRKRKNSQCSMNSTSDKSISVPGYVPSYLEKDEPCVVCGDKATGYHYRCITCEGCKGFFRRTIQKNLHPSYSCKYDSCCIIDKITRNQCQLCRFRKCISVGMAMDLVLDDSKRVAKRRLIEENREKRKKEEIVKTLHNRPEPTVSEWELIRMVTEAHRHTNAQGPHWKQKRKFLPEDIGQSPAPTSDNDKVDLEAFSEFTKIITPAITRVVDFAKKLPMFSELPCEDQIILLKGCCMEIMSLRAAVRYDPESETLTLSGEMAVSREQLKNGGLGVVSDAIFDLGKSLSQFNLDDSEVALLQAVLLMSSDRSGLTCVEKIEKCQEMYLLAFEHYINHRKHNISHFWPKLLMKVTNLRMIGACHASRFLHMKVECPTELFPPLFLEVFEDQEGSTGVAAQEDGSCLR
# UniProt P10827: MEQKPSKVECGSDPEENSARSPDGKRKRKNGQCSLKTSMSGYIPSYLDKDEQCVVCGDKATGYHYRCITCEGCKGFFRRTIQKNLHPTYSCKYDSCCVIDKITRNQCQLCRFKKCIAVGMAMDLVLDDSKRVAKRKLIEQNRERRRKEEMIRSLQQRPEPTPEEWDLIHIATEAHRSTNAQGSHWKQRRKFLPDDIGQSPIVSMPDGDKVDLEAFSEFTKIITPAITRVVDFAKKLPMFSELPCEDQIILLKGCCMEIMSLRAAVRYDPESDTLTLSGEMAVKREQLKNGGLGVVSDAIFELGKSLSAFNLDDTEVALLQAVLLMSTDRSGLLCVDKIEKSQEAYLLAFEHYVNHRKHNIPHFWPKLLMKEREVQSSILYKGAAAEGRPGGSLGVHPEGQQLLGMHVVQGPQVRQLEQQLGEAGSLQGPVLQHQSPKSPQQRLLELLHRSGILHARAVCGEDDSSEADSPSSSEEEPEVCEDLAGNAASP
# UniProt P08172, whole entry, looked up: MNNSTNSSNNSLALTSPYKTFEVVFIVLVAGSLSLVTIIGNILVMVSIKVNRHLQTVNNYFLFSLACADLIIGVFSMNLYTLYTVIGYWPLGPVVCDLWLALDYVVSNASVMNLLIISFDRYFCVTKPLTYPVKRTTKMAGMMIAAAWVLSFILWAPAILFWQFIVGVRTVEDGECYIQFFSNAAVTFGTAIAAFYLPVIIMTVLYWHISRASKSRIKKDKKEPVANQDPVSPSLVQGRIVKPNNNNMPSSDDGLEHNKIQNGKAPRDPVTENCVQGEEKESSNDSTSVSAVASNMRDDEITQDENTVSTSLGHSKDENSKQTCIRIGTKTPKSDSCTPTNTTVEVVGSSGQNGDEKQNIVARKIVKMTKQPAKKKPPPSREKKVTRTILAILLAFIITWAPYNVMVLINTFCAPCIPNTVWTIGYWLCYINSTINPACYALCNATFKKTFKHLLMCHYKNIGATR
# UniProt P21709: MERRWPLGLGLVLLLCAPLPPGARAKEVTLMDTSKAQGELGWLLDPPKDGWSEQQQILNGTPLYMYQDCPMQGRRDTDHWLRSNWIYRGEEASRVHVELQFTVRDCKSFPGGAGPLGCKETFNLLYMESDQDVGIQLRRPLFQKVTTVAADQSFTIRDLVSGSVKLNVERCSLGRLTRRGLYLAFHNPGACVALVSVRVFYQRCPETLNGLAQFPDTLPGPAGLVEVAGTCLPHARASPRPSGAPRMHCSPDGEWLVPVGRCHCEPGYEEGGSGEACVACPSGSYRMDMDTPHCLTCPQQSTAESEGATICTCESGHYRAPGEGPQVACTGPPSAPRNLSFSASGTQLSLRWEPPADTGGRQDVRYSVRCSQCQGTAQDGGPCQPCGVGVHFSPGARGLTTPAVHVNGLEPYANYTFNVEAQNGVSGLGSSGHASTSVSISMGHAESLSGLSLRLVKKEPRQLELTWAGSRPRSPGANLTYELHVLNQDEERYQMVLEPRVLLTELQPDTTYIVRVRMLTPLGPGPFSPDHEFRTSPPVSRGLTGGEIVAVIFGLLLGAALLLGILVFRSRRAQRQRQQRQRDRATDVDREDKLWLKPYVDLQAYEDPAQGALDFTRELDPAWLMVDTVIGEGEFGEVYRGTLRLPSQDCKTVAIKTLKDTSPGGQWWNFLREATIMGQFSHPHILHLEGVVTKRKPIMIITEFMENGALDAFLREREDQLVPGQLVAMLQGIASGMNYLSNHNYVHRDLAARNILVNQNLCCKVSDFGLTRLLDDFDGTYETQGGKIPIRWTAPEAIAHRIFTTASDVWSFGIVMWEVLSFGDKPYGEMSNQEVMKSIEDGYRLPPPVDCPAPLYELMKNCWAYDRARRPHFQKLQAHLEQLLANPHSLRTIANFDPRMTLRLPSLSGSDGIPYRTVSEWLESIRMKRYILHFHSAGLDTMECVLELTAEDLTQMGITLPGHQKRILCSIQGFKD
# UniProt P17948, whole entry, looked up: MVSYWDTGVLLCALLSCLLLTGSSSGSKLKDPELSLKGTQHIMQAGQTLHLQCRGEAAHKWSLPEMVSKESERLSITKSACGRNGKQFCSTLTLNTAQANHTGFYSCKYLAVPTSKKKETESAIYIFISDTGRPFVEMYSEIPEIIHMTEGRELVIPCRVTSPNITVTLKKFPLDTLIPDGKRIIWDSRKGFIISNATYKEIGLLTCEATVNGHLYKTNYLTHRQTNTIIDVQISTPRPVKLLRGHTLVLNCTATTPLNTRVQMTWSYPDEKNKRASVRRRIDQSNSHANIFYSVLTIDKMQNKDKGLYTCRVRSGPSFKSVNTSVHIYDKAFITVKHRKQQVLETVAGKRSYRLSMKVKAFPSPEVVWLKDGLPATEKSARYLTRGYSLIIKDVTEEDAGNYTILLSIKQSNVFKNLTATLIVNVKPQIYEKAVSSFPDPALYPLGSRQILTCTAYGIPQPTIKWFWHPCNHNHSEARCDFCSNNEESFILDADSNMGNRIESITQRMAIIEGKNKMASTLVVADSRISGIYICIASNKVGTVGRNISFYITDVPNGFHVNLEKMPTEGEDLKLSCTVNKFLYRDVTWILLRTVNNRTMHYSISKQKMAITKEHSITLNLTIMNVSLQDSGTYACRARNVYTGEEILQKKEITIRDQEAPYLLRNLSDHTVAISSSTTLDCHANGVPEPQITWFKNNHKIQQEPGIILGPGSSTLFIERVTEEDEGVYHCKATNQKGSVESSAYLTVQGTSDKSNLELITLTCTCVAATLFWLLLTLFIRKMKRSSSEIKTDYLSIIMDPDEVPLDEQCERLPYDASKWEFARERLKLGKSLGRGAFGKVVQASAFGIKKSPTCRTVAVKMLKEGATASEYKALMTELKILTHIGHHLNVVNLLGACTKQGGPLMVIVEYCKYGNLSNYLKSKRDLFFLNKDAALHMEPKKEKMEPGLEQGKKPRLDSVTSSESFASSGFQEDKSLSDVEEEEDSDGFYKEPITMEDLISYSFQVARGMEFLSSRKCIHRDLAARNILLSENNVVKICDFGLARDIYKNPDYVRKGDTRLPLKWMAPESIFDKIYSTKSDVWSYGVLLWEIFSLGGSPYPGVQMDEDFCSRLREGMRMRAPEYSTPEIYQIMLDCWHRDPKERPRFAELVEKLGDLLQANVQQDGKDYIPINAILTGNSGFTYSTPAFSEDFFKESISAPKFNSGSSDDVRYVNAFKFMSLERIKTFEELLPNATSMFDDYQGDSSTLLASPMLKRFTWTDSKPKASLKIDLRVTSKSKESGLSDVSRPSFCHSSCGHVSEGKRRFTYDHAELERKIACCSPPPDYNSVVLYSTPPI
# UniProt P42336, whole entry, looked up: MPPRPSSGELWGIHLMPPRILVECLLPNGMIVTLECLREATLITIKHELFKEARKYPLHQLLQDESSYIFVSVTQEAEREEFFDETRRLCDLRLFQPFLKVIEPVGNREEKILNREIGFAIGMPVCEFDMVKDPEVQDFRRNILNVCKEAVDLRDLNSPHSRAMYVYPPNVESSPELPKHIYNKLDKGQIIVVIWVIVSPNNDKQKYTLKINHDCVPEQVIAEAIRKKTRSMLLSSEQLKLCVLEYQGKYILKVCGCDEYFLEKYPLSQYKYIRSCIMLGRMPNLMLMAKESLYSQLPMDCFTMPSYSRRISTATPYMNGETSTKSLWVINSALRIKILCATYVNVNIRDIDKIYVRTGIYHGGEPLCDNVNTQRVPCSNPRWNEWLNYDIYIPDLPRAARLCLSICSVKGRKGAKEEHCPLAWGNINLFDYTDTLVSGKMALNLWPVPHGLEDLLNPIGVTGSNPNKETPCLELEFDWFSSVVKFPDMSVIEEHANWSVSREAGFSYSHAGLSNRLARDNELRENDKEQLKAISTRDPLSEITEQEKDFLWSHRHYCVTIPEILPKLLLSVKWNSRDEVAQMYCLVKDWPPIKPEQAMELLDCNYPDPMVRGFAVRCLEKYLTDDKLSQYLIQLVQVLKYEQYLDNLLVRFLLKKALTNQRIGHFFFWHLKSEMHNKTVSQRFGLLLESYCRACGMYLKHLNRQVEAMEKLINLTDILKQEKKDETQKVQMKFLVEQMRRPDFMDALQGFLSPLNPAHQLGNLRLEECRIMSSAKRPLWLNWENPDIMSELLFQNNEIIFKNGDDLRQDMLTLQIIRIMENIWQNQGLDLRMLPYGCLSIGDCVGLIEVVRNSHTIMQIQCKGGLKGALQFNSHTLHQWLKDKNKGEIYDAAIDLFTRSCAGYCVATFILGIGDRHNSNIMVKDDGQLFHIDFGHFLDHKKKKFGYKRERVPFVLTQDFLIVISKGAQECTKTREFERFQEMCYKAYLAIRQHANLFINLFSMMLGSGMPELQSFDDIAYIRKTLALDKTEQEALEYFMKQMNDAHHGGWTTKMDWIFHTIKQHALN
# Values joined by “and” are separate entries in the source; they are usually repeats but may differ in a detail not shown here. Equal values may be shown once. This list was built around the results that the source calls inconclusive (neither active nor inactive); the mix of calls is not that of the screen. For part of these data: Potencies of inconclusive entries are doubtful fits and often do not repeat. Some compounds were tested as several samples or in several runs, with calls that do not always agree. Active and inactive are the calls of the source. How the source made its calls: active means hit-call score of the fitted dose curve at least 0.9, where 1 is the maximum; inconclusive means response in the unintended direction; inactive means score below 0.9.
# What was measured:
# [1] = molecular target: GAL4 Transcription Factor (Internal Marker), GAL4 (gene 855828) (UniProt P04386); assay: ATG_GAL4_XSP2: Attagene TRANS-FACTORIAL Multi-Species (XSP2) HepG2 Assay for GAL4 Transcription Factor (Internal Marker) (AID 2283814);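 further: GAL4 reporter mRNA background control in MRTU transfected cells not a receptor target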
# Outline: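 HepG2 cells transiently transfected with GAL4-UAS reporter units, stimulated with 3 nM 6-alpha-fluorotestosterone plus 1.5 nM norgestrel, dosed 24 h. Reporter mRNA by RT-PCR/capillary electrophoresis; gain-of-signal fit versus DMSO, background control.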
# [2] = tested on: zebrafish Androgen Receptor (AR), gene 100005148; assay: ATG_zfAR_XSP2: Attagene TRANS-FACTORIAL Multi-Species (XSP2) HepG2 Assay for zebrafish Androgen Receptor (AR) (AID 2283825);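 further: hits raise reporter mRNA above DMSO so AC50 reflects agonist-type gain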
# Outline: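 Zebrafish AR–GAL4 chimera transiently expressed with GAL4-UAS reporter in HepG2 cells, co-stimulated with 3 nM 6-alpha-fluorotestosterone and 1.5 nM norgestrel; 24 h dosing, reporter mRNA read by RT-PCR/capillary electrophoresis versus DMSO.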
# [3] = molecular target: zebrafish Thyroid Hormone Receptor alpha (TRa), thraa (gene 30670) (UniProt Q98867); assay: ATG_zfTRa_XSP2: Attagene TRANS-FACTORIAL Multi-Species (XSP1) HepG2 Assay for zebrafish Thyroid Hormone Receptor alpha (TRa) (AID 2283832);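 further: actives raise zebrafish TRa-Gal4 reporter transcript above DMSO baseline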
# Outline: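 HepG2 cells transiently transfected with multiplexed GAL4-UAS reporter units expressing chimeric NR-Gal4 proteins; 24 h after dosing, reporter mRNA measured by RT-PCR, FAM labelling, HpaI digestion and capillary electrophoresis; gain of signal versus DMSO baseline.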
# [4] = tested on: zebrafish Peroxisome Proliferator-activated Receptor gamma (PPARg), gene 557037; assay: ATG_zfPPARg_XSP2: Attagene TRANS-FACTORIAL Multi-Species (XSP2) HepG2 Assay for zebrafish Peroxisome Proliferator-activated Receptor gamma (PPARg) (AID 2283833);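 further: actives increase reporter signal over DMSO so AC50 reflects activation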
# Outline: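 Transfect HepG2 with multiplexed GAL4-UAS reporter constructs; dose chemical 24 h; isolate RNA, reverse-transcribe, PCR-amplify, label and digest reporter products; resolve by capillary electrophoresis. Activity taken as increase over DMSO.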
# [5] = molecular target: human Thyroid hormone Receptor alpha (TRa), THRA (gene 7067) (UniProt P10827); assay: ATG_hTRa_XSP2: Attagene TRANS-FACTORIAL Multi-Species (XSP2) HepG2 Assay for human Thyroid hormone Receptor alpha (TRa) (AID 2283838)
# Outline: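 HepG2 cells transiently transfected with multiplexed GAL4-UAS reporter units and exogenous NR-GAL4 chimeras; 24 h chemical exposure with 3 nM 6-alpha-fluorotestosterone and 1.5 nM norgestrel present. Reporter mRNA measured by RT-PCR, FAM labelling, HpaI digestion, capillary electrophoresis; gain-of-signal versus DMSO.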
# [6] = molecular target: human Thyroid Receptor Alpha (TRa), THRA (gene 7067) (UniProt P10827); assay: NVS_NR_hTRa_Antagonist: NovaScreen (NVS) Nuclear Receptor Binding Assay for human Thyroid Receptor Alpha Antagonism (TRa) (AID 2283362);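 further: activity is loss of signal relative to DMSO baseline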
# Outline: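 AlphaLISA chemiluminescent immunoassay readout, taken 1 h post-dosing in a cell-free system with extracted protein. Activity was scored as signal loss against DMSO negative control, from duplicate single-concentration (25 uM) testing followed by concentration-response follow-up.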
# [7] = CCTE_Deisenroth_AIME_384WELL_CTox_Active: Cytotoxicity Assessment (CTOX) in CCTE's 384-well Estrogen Receptor Transactivation Assay with AIME metabolic competence (metabolism positive), Deisenroth Lab (AID 2284037);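 further: chemicals first conditioned 2 h by alginate-bound induced rat liver S9 before cells; activity means signal loss indicating cell death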
# Outline: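 Cytotoxicity in VM7Luc4E2 breast cells, 24 hour, measured as protease-substrate fluorescence loss, after 2-hour metabolic conditioning with induced rat hepatic S9 in alginate microspheres. Concentrations 0.002 - 200 uM, 10 points, bidirectional fitting.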
# [8] = molecular target: Muscarinic acetylcholine receptor M2 (Homo sapiens) (UniProt P08172); assay: NVS_GPCR_hM2: NovaScreen (NVS) G Protein-Coupled Receptor Assay for human Muscarinic, M2 Receptor (AID 2283273)
# Outline: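 CHO membrane prep, radioligand + test compound, 1 h; filtration, scintillation count. Screen 25 uM duplicate → conc. series for actives. Readout: decrease in binding vs DMSO control.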
# [9] = NVS_IC_rCaDHPRCh_L: NovaScreen (NVS) Ion Channel Assay for rat Calcium Channel, Type L, Dihydropyridine Site (CaDHPRCh_L) (AID 2283320)
# Outline: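 Radioligand binding to dihydropyridine site on rat cortical membranes, filter-based scintillation counting, 1 h after dosing. Screened in duplicate at 25 uM; actives rerun in concentration-response up to 50 uM. Loss of signal versus DMSO baseline.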
# [10] = Tanguay_ZF_120hpf_AXIS_legacy: (Legacy) Oregon State University Tanguay Lab 120 Hour Post-fertilization zebrafish Assay for Body Axis Malformation (AID 2283635);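 further: potency for an increased fraction of larvae scored with body axis malformation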
# Outline: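 Embryos: 5D wild-type, pronase-dechorionated 4 hpf; static exposure 6–120 hpf, 28C, sealed, dark, 1 embryo/well, 0.64% DMSO. 120 hpf axis malformation scored present/absent; dead embryos excluded. Analysed as gain of signal vs DMSO.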
# [11] = Tanguay_ZF_120hpf_OTIC_legacy: (Legacy) Oregon State University Tanguay Lab 120 Hour Post-fertilization zebrafish Assay for Otic Vesicle Malformation (AID 2283639)
# Outline: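 Tropical 5D wild-type zebrafish embryos were exposed statically in sealed, foil-covered plates at 28C until 120 hpf, with 0.64% (vol/vol) DMSO final. Otic vesicle malformation was scored present/absent by brightfield microscopy, with DMSO as baseline.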
# [12] = molecular target: human Ephrin type-A Receptor 1 (EphA1), EPHA1 (gene 2041) (UniProt P21709); assay: NVS_ENZ_hEphA1: NovaScreen (NVS) Enzymatic Assay for human Ephrin type-A Receptor 1 (EphA1) (AID 2283158);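 further: activity is signal loss versus DMSO meaning EphA1 kinase inhibition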
# Outline: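 Recombinant kinase, fluorescent substrate, mobility-shift separation, fluorescence read at 1 h. Single-point duplicates at 25 uM; hits (e.g., ≥30% inhibition) run singleton concentration-response, max 50 uM. DMSO = negative control/baseline.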
# [13] = molecular target: human Vascular Endothelial Growth Factor Receptor 1 (VEGFR1), FLT1 (gene 2321) (UniProt P17948); assay: NVS_ENZ_hVEGFR1: NovaScreen (NVS) Enzymatic Assay for human Vascular Endothelial Growth Factor Receptor 1 (VEGFR1) (AID 2283226)
# Outline: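 Cell-free assay of recombinant human VEGFR1 kinase with substrate, measured 1 h after dosing; fluorescence with electrophoretic mobility-shift separation of substrate and product, referenced to DMSO; primary screen at 25 uM in duplicate, actives then run in concentration series.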
# [14] = Tanguay_ZF_120hpf_SOMI_legacy: (Legacy) Oregon State University Tanguay Lab 120 Hour Post-fertilization zebrafish Assay for Somite Malformation (AID 2283647)
# Outline: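 Binary brightfield scoring of somite defects at 120 hpf in 5D wild-type larvae; one dechorionated embryo per well, static exposure from 6 hpf, 28C, sealed and dark. Final DMSO 0.64%; trimethyltin chloride 5uM positive control.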
# [15] = STM_H9_OrnCyssISnorm_ratio: Stemina devTOX quickPredict H9 human embryonic stem cell (hESC)-based Assay for Ornithine (ORN):Cystine (CYSS) Ratio (AID 2283714)
# Outline: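 Steps: H9 hESCs in pluripotent state dosed 72h, medium plus compound renewed every 24h; conditioned medium from the final 24h deproteinized in 40% acetonitrile; ORN and CYSS quantified by UPLC-HRMS with C13 spike-ins; ratio relative to vehicle.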
# [16] = molecular target: human Phosphoinositide 3-kinase alpha (PI3Ka), PIK3CA (gene 5290) (UniProt P42336); assay: NVS_ENZ_hPI3Ka: NovaScreen (NVS) Enzymatic Assay for human Phosphoinositide 3-kinase alpha (PI3Ka) (AID 2283196)
# Outline: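 Chemicals were first screened at 25 uM in duplicate, then hits were run as concentration series up to 50 uM. Enzyme activity was measured by fluorescence after mobility-shift separation, with loss of signal relative to DMSO taken as activity.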
structure (smiles),measurement,setting,value
Oc1ccc2cc(SSc3ccc4cc(O)ccc4c3)ccc2c1,AC50,[1],inconclusive: 100 µM
same,AC50,[2],inconclusive: 26.9 µM and inconclusive: 31.8 µM
same,AC50,[3],active: 156 µM
same,AC50,[4],inconclusive: 100 µM
same,outcome,[4],inactive
same,AC50,[5],active: 132 µM
OC[C@H]1O[C@@H]2O[C@H]3[C@H](O)[C@@H](O)[C@@H](O[C@H]4[C@H](O)[C@@H](O)[C@@H](O[C@H]5[C@H](O)[C@@H](O)[C@@H](O[C@H]6[C@H](O)[C@@H](O)[C@@H](O[C@H]7[C@H](O)[C@@H](O)[C@@H](O[C@H]8[C@H](O)[C@@H](O)[C@@H](O[C@H]9[C@H](O)[C@@H](O)[C@@H](O[C@H]1[C@H](O)[C@H]2O)O[C@@H]9CO)O[C@@H]8CO)O[C@@H]7CO)O[C@@H]6CO)O[C@@H]5CO)O[C@@H]4CO)O[C@@H]3CO,outcome,[6],inactive
CCCCC(CC)COC(C)=O (centres undefined),outcome,[7],inactive
CCc1cc(SCc2sc(-c3ccc(C(F)(F)F)cc3)nc2CN2CCN(c3ccc(OC)cc3)CC2)ccc1OCC(=O)O,AC50,[8],inconclusive: 0.306 µM
same,AC50,[9],active: 15.9 µM
same,AC50,[10],active: 26 µM
same,AC50,[11],inconclusive: 59.2 µM
CC(=O)OCc1ccc2c(c1)OCO2,AC50,[12],active: 8.23 µM
same,AC50,[13],inconclusive: 1.42 µM
CCCCC(CC)COC(=O)c1ccccc1C(=O)O (centres undefined),AC50,[11],inconclusive: 1.32 µM
same,AC50,[14],inconclusive: 9.19 µM
same,AC50,[15],active: 283 µM
same,AC50,[1],inconclusive: 102 µM
same,outcome,[2],inactive
same,AC50,[3],inconclusive: 102 µM
same,AC50,[4],active: 59.8 µM
same,AC50,[5],inconclusive: 0.00928 µM
c1ccc2sc(SSN3CCOCC3)nc2c1,AC50,[16],inconclusive: 25 µM
same,AC50,[13],inconclusive: 6.58 µM

# Nothing new here: entries from further up.
structure (smiles),measurement,setting,value
CCCCC(CC)COC(=O)c1ccccc1C(=O)O (centres undefined),AC50,[4],active: 59.8 µM
same,AC50,[5],inconclusive: 0.00928 µM
